Experimental data: publication doi:10.1101/2021.03.29.437469
Read-outs that look alike come from different tables or passages of the source. Results are given in words; binding and its absence hold for the method and conditions named. In cells and extracts the contact can be indirect. These calls come from enrichment with a bait or labelling near it, and not all partners need be listed. Sequences can lack the tags named with a protein.

T1: C-terminally TAP-tagged Tif4631p (S. cerevisiae) (UniProt P39935)
T1 sequence: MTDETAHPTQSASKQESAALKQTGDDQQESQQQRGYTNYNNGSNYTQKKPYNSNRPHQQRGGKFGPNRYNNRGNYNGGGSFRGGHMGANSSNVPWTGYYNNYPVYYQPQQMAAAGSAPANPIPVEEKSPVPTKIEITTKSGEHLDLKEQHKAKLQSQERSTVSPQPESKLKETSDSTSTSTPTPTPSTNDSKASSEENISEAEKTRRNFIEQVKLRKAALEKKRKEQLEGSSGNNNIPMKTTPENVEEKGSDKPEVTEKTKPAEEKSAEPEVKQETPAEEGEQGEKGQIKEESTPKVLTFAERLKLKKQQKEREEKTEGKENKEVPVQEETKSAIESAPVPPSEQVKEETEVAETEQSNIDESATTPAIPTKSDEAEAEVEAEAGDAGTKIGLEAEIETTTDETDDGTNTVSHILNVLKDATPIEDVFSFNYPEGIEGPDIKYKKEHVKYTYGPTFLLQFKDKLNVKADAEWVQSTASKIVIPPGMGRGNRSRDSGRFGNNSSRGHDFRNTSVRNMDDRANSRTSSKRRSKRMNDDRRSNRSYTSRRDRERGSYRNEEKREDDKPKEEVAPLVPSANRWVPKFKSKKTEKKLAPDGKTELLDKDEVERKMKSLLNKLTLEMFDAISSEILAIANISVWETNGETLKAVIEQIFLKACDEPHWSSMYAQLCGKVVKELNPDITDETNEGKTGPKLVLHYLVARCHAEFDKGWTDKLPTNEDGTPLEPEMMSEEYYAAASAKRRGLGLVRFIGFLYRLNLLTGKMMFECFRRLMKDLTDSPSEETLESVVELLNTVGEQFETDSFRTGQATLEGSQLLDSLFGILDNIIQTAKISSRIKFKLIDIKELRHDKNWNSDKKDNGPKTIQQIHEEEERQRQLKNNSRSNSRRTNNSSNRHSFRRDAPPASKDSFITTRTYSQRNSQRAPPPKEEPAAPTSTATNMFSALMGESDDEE

B1: Nmd2p (protein, UniProt P38798 1-1089)
chain: MDDGRKKELHDLNTRAWNGEEVFPLKSKKLDSSIKRNTGFIKKLKKGFVKGSESSLLKDLSEASLEKYLSEIIVTVTECLLNVLNKNDDVIAAVEIISGLHQRFNGRFTSPLLGAFLQAFENPSVDIESERDELQRITRVKGNLRVFTELYLVGVFRTLDDIESKDAIPNFLQKKTGRKDPLLFSILREILNYKFKLGFTTTIATAFIKKFAPLFRDDDNSWDDLIYDSKLKGALQSLFKNFIDATFARATELHKKVNKLQREHQKCQIRTGKLRDEYVEEYDKLLPIFIRFKTSAITLGEFFKLEIPELEGASNDDLKETASPMITNQILPPNQRLWENEDTRKFYEILPDISKTVEESQSSKTEKDSNVNSKNINLFFTDLEMADCKDIIDDLSNRYWSSYLDNKATRNRILKFFMETQDWSKLPVYSRFIATNSKYMPEIVSEFINYLDNGFRSQLHSNKINVKNIIFFSEMIKFQLIPSFMIFHKIRTLIMYMQVPNNVEILTVLLEHSGKFLLNKPEYKELMEKMVQLIKDKKNDRQLNMNMKSALENIITLLYPPSVKSLNVTVKTITPEQQFYRILIRSELSSLDFKHIVKLVRKAHWDDVAIQKVLFSLFSKPHKISYQNIPLLTKVLGGLYSYRRDFVIRCIDQVLENIERGLEINDYGQNMHRISNVRYLTEIFNFEMIKSDVLLDTIYHIIRFGHINNQPNPFYLNYSDPPDNYFRIQLVTTILLNINRTPAAFTKKCKLLLRFFEYYTFIKEQPLPKETEFRVSSTFKKYENIFGNTKFERSENLVESASRLESLLKSLNAIKSKDDRVKGSSASIHNGKESAVPIESITEDDEDEDDENDDGVDLLGEDEDAEISTPNTESAPGKHQAKQDESEDEDDEDDDEDDDDDDDDDDDDGEEGDEDDDEDDDDEDDDDEEEEDSDSDLEYGGDLDADRDIEMKRMYEEYERKLKDEEERKAEEELERQFQKMMQESIDARKSEKVVASKIPVISKPVSVQKPLLLKKSEEPSSSKETYEELSKPKKIAFTFLTKSGKKTQSRILQLPTDVKFVSDVLEEEEKLKTERNKIKKIVLKRSFD
B2: Dcp2p (protein, UniProt P53550 1-970)
chain: MSLPLRHALENVTSVDRILEDLLVRFIINCPNEDLSSVERELFHFEEASWFYTDFIKLMNPTLPSLKIKSFAQLIIKLCPLVWKWDIRVDEALQQFSKYKKSIPVRGAAIFNENLSKILLVQGTESDSWSFPRGKISKDENDIDCCIREVKEEIGFDLTDYIDDNQFIERNIQGKNYKIFLISGVSEVFNFKPQVRNEIDKIEWFDFKKISKTMYKSNIKYYLINSMMRPLSMWLRHQRQIKNEDQLKSYAEEQLKLLLGITKEEQIDPGRELLNMLHTAVQANSNNNAVSNGQVPSSQELQHLKEQSGEHNQQKDQQSSFSSQQQPSIFPSLSEPFANNKNVIPPTMPMANVFMSNPQLFATMNGQPFAPFPFMLPLTNNSNSANPIPTPVPPNFNAPPNPMAFGVPNMHNLSGPAVSQPFSLPPAPLPRDSGYSSSSPGQLLDILNSKKPDSNVQSSKKPKLKILQRGTDLNSIKQNNNDETAHSNSQALLDLLKKPTSSQKIHASKPDTSFLPNDSVSGIQDAEYEDFESSSDEEVETARDERNSLNVDIGVNVMPSEKDSRRSQKEKPRNDASKTNLNASAESNSVEWGPGKSSPSTQSKQNSSVGMQNKYRQEIHIGDSDAYEVFESSSDEEDGKKLEELEQTQDNSKLISQDILKENNFQDGEVPHRDMPTESNKSINETVGLSSTTNTVKKVPKVKILKRGETFASLANDKKAFDSSSNVSSSKDLLQMLRNPISSTVSSNQQSPKSQHLSGDEEIMMMLKRNSVSKPQNSEENASTSSINDANASELLGMLKQKEKDITAPKQPYNVDSYSQKNSAKGLLNILKKNDSTGYPRTEGGPSSEMSTSMKRNDATNNQELDKNSTELLNYLKPKPLNDGYENISNKDSSHELLNILHGNKNSSAFNNNVYATDGYSLASDNNENSSNKLLNMLQNRSSAINEPNFDVRSNGTSGSNELLSILHRK
B3: Ski2p (protein, UniProt P35207 1-1287)
chain: MSEGFSSSSIQELYQSLKEITNNADVELFEDRITKLDFESTDEPKHANDIIKDRFLRPSNALPWSLLDMVQDVPHTSSPEDCSGKLDYKELLKVPDPINRTSYQFKRTGLEGKISGYKEEVDLKEVANANASNSLSITRSINHNQNSVRGSTAQLPFTPGGIPMKSVKTDSEQNGSSTMANATKLLHKDGQGLFDIPEGMNRGIKPMDSPAENEDQNGQFKELKQLNEIDNELDIRIEANEAKLKEEEKSAKSISEEIMEEATEETTADNADDAEIDELLPIGIDFGRTKPVSKSVPVKKEWAHVVDLNHKIENFDELIPNPARSWPFELDTFQKEAVYHLEQGDSVFVAAHTSAGKTVVAEYAIAMAHRNMTKTIYTSPIKALSNQKFRDFKETFDDVNIGLITGDVQINPDANCLIMTTEILRSMLYRGADLIRDVEFVIFDEVHYVNDQDRGVVWEEVIIMLPQHVKFILLSATVPNTYEFANWIGRTKQKNIYVISTPKRPVPLEINIWAKKELIPVINQNSEFLEANFRKHKEILNGESAKGAPSKTDNGRGGSTARGGRGGSNTRDGRGGRGNSTRGGANRGGSRGAGAIGSNKRKFFTQDGPSKKTWPEIVNYLRKRELLPMVVFVFSKKRCEEYADWLEGINFCNNKEKSQIHMFIEKSITRLKKEDRDLPQILKTRSLLERGIAVHHGGLLPIVKELIEILFSKGFIKVLFATETFAMGLNLPTRTVIFSSIRKHDGNGLRELTPGEFTQMAGRAGRRGLDSTGTVIVMAYNSPLSIATFKEVTMGVPTRLQSQFRLTYNMILNLLRIEALRVEEMIKYSFSENAKETLQPEHEKQIKVLQEELQTIEYKSCEICDNDIEKFLELMLAYKEATVNLMQEMVKSPSILHILKEGRLVAFRDPNDCLKLGFVFKVSLKDAVCVIMTFTKPYKLPNGEPNHLIYFPKADGYRRRNFPKFQKTDFYMEEVPVTAIEVITKRKFAAPLGKVIKKDVAALNEFNAETNNILDGKTLKEAINIEKQGLKIHQILLDRTNIRDEIFKLKSIKCPNLSQHIVPKFKAHVIKKKIEELYHLMSDQNLSLLPDYEKRLAVLKDTEFIDQNHNVLLKGRVACEINSGYELVLTELILDNFLGSFEPEEIVALLSVFVYEGKTREEEPPIVTPRLAKGKQRIEEIYKKMLCVFNTHQIPLTQDEAEFLDRKRFAMMNVVYEWARGLSFKEIMEMSPEAEGTVVRVITWLDEICREVKTASIIIGNSTLHMKMSRAQELIKRDIVFAASLYL
B4: Nrd1p (protein, UniProt P53617 1-575)
chain: MQQDDDFQNFVATLESFKDLKSGISGSRIKKLTTYALDHIDIESKIISLIIDYSRLCPDSHKLGSLYIIDSIGRAYLDETRSNSNSSSNKPGTCAHAINTLGEVIQELLSDAIAKSNQDHKEKIRMLLDIWDRSGLFQKSYLNAIRSKCFAMDISNNTANTASQQLSLDPKQRSKQILSNLKKSPPLNLNISLPTDLTSTDPAKQQAALFQVIAALQKHFKTLPSHTSVGTVAPPQAHTITEYGSRRERERERERYNSRRNRSRSPPAPFSQPSTGRKDRYPSVAQDQYSIGAPNTTFGTNNHHLYPDELNVSNNPHYRPKPVSYDSTLPPDHIKVYSRTLFIGGVPLNMKEWDLANVLKPFAEVQSVILNNSRKHAFVKVYSRHEAENVLQNFNKDGALPLRTRWGVGFGPRDCCDYQHGYSIIPMHRLTDADKKWSVSAQWGGTSGQPLVTGIVFEEPDIIVGEGVSSKAISQKMPTDSGRNGPRSGKPNKSGSISSISPVPYGNAPLASPPPQQYVQPMMQQPYGYAPNQPLPSQGPAAAAPPVPQQQFDPTAQLNSLMNMLNQQQQQQQQS
B5: Rrp4p (protein, UniProt P38792 1-359)
chain: MSEVITITKRNGAFQNSSNLSYNNTGISDDENDEEDIYMHDVNSASKSESDSQIVTPGELVTDDPIWMRGHGTYFLDNMTYSSVAGTVSRVNRLLSVIPLKGRYAPETGDHVVGRIAEVGNKRWKVDIGGKQHAVLMLGSVNLPGGILRRKSESDELQMRSFLKEGDLLNAEVQSLFQDGSASLHTRSLKYGKLRNGMFCQVPSSLIVRAKNHTHNLPGNITVVLGVNGYIWLRKTSQMDLARDTPSANNSSSIKSTGPTGAVSLNPSITRLEEESSWQIYSDENDPSISNNIRQAICRYANVIKALAFCEIGITQQRIVSAYEASMVYSNVGELIEKNVMESIGSDILTAEKMRGNGN

Assays:
[1] = target: T1, C-terminally TAP-tagged Tif4631p (S. cerevisiae); test: affinity purification with mass spectrometry
[2] = target: T1, C-terminally TAP-tagged Tif4631p (S. cerevisiae); test: affinity purification with mass spectrometry; remark: listed apart in the source

| Molecule | binding [1] | binding [2] |
| --- | --- | --- |
| Tif2B (S. cerevisiae (endogenous in yeast)) | binds | – |
| B1 | – | binds |
| B2 | – | binds |
| B3 | – | binds |
| B4 | binds | – |
| B5 | binds | – |
